{"sequences": {"note": "Sequences of proteins named here, by UniProt entry; tags and fusion partners are left off.", "UniProt P08684, whole entry": "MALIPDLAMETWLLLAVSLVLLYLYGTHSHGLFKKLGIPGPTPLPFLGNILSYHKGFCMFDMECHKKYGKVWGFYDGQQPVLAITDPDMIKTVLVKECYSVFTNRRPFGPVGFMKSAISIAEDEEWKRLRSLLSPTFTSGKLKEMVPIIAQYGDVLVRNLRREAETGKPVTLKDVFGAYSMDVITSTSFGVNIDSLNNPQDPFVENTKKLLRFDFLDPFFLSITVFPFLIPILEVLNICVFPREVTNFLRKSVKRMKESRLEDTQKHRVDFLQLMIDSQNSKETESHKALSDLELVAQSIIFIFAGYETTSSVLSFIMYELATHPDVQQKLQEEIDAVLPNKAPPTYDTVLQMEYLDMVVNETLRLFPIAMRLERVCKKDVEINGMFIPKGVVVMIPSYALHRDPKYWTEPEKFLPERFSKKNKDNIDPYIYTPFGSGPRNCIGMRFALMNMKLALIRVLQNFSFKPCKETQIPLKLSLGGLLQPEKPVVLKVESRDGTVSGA"}, "source": "patent US20140227208A1", "about": "“COSMETIC COMPOSITIONS CONTAINING SUBSTITUTED AZOLE AND METHODS FOR ALLEVIATING MECHANICALLY-INDUCED SKIN INFLAMMATION” (The Procter & Gamble Company, priority 2013, published 2014)", "target": "CYP3A4 (Homo sapiens, UniProt P08684)", "assay": "In vitro CYP/CYP3A4 inhibition assay (P450-GLO Assay kit, Promega)", "note": "Structures were worked out from names or drawings and are uncertain."}
{"molecule": "CCCCc1nc(Cl)c(CO)[nH]1", "values": [{"measurement": "Hit / no hit for inhibition of CYP3A4", "setting": "human recombinant CYP3A4", "value": "no hit (weak/no inhibition (IC50 value>10 μM))"}, {"measurement": "IC50", "setting": "read-out: IC50 (uM), CYP3A4 inhibition, human recombinant CYP3A4", "value": "> 10", "unit": "µM"}]}
